Taken from: PubChem BioAssay AID1224826 (NIAID, 2016)
Test: 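Regulators of Tlr4 signalling leading to Tnf-alpha expression in macrophages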 (primary screen). Cells: RAW264.7 G9 macrophages from mouse bearing reporters for p65 (GFP) and the Tnf promoter (mCherry). Reagent: siRNA pool against mouse genes, 100 nM. Time to read-out: 16 h of LPS stimulation, after 2 days of siRNA transfection. Treatment: bacterial lipopolysaccharide (Salmonella minnesota R595), 10 ng/ml. Measured: 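Imaged Tnf reporter mCherry in nuclei, minus background, normalised per plate to the median and expressed as robust z-scores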. Reading the numbers: Tnf reporter robust z-score: higher = stronger Tnf promoter reporter signal after LPS. Hit rule: 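Called active when robust z-score is at most -1.3, matching the median of the Tlr4 knock-down control, or over 3; control wells and wells with under 50 cells never active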. Meaning of the calls: active = Tnf reporter clearly lowered or raised; inactive = no clear change in Tnf reporter.
Shown is one part, drawn at random, of about 17,000 deposited reagents. About 1,110 of all reagents (6.6%) count as active. 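Active means lowered or raised reporter signal; replicate intensities are raw and not normalised per plate.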 A number with no mark means an inactive call. Not all columns of the deposit are shown.

Rgs20 → Tnf reporter robust z-score = -0.5; fewer than 50 cells in well = enough cells in well
Tnnc2 → Tnf reporter robust z-score = 0.5; fewer than 50 cells in well = enough cells in well
Zdhhc20 → Tnf reporter robust z-score = -0.53; fewer than 50 cells in well = enough cells in well
Rps6kc1 → Tnf reporter robust z-score = 0.5; fewer than 50 cells in well = enough cells in well
Sftpa1 → Tnf reporter robust z-score = -0.53; fewer than 50 cells in well = enough cells in well
Ppp4r3a → Tnf reporter robust z-score = 0.36; fewer than 50 cells in well = enough cells in well
Rfx1 → Tnf reporter robust z-score = -0.79; fewer than 50 cells in well = enough cells in well
Cyc1 → Tnf reporter robust z-score = -0.26; fewer than 50 cells in well = enough cells in well
Sdcbp → Tnf reporter robust z-score = 2.23; fewer than 50 cells in well = enough cells in well
Polr3d → Tnf reporter robust z-score = -0.88; fewer than 50 cells in well = enough cells in well
Defb50 → Tnf reporter robust z-score = -1.16; fewer than 50 cells in well = enough cells in well
Cyp2d34 → Tnf reporter robust z-score = 1.62; fewer than 50 cells in well = enough cells in well
Myf6 → Tnf reporter robust z-score = -0.11; fewer than 50 cells in well = enough cells in well
Or52n2b → Tnf reporter robust z-score = 2.94; fewer than 50 cells in well = enough cells in well
Hic1 → Tnf reporter robust z-score = -0.06; fewer than 50 cells in well = enough cells in well
Alkbh7 → fewer than 50 cells in well = fewer than 50 cells per well; well left out of calls
Dlst → Tnf reporter robust z-score = 0.94; fewer than 50 cells in well = enough cells in well
Apba1 → Tnf reporter robust z-score = 1.87; fewer than 50 cells in well = enough cells in well
Ergic2 → Tnf reporter robust z-score = -0.09; fewer than 50 cells in well = enough cells in well
Lynx1 → Tnf reporter robust z-score = 0.95; fewer than 50 cells in well = enough cells in well
Lin7c → Tnf reporter robust z-score = -0.52; fewer than 50 cells in well = enough cells in well

A few values from above:
Under “Tnf reporter robust z-score”, Cyc1 has -0.26
Sftpa1, fewer than 50 cells in well: enough cells in well
